Structures can show the parent of a compound that is named as a salt.
Tested on: oxidative stress status in AlCl3-induced AD rats
Assay: Antioxidant parameters (MDA, GSH, CAT, SOD) in brain homogenate and serum of AlCl3-induced AD rats
Assay type: in vivo
Conditions: Mean ± SEM, N = 6

For `COc1cc2c(cc1OC)C(=O)C(CC1CCN(Cc3ccccc3)CC1)C2` (stereo not drawn) [REF. DRUG, Donepezil tartrate], the “SERUM CAT” value was 2.18 ± 0.04^@ U/mg protein, the “SERUM GSH” value was 0.46 ± 0.021^@ nmol/mg protein and the “SERUM MDA” value was 1.12 ± 0.03^@ nmol/mg protein.
